Measured values reported in patent US20230016034A1, “ENHANCEMENT OF iPSC-DERIVED EFFECTOR IMMUNE CELL USING SMALL COMPOUNDS” (Fate Therapeutics, Inc., priority 2019, published 2023).
Entries after “also recorded” stand apart in the source; their conditions may differ. At least one structure is not confirmed: it was looked up by name or label, or the drawing left a doubt.

Tests used:
Nalm6-luciferase cells [1] = conditions: FIG. 11D
Nalm6-luciferase cells [2] = experiment: In vivo efficacy of dexamethasone-treated post-thaw CD19-CAR iT cells, systemic Nalm6-luciferase model; design: species or system NSG female mice
Excerpt: Tumor progression was monitored at days 7, 14 and 20 post tumor injection by bioluminescent imaging. CAR-iT cells treated with dexamethasone (FIG. 8B) were compared with control cells without dexamethasone treatment (FIG. 8A) in cultures for iv/iv in vivo efficacy.

CAR-iT cells [3] = conditions: after 7 day culturing; absence of cytokines vs IL2, IL7, IL15 combinations; FIG. 11C
iNK cells [4] = tested on: iNK cells
CAR-iT cells [5] = experiment: CAR-iT cell expansion and phenotype under dexamethasone with or without IL7; assay type: cell-based, human
[6] = tested on: peripheral blood NK cells; experiment: Granzyme B flow cytometry staining of treated primary NK cells; assay type: cell-based
[7] = tested on: Raji B cell lymphoma line and Raji CD19 knockout (CD19KO) cells; experiment: Long-range 24-hr killing assay with treated post-thaw CAR-iNK cells; assay type: cell-based; conditions: Raji vs Raji CD19KO; FIG. 3B
CAR-iT cells [8] = experiment: RNAseq differential gene set enrichment analysis of dexamethasone-treated CAR-iT cells; assay type: cell-based, human; conditions: FIG. 6
Nalm6-luciferase cells [9] = experiment: In vivo efficacy of compound-treated post-thaw CD19-CAR iNK cells, Nalm6-luciferase model; design: species or system NSG mice; conditions: CAR-iNK treated final 5 days before cryopreservation; days 7 and 14; vs untreated control cells; FIG. 4A
[10] = tested on: B16 melanoma cells engineered to express MICA; experiment: In vivo model of solid tumor metastasis, dexamethasone-treated MICAS-CAR iNK cells; design: species or system NSG mice; conditions: 14 days after tumor transplant; vs iNK cells not treated prior to cryopreservation; FIG. 4C
iNK cells [11] = conditions: CD19-CAR iNK cells treated last 5 days of expansion, no IL15 or IL2; vs untreated control; FIG. 1A
[12] = tested on: Nalm6 (CD19+) or Nalm6 CD19 knockout (19ko) cells; experiment: Cytotoxicity assay with treated, cryopreserved CD19-CAR iNK cells rested overnight post-thaw; assay type: cell-based; conditions: 5 days treatment, thawed, FIG. 2B
[13] = dexamethasone treated iNK vs untreated iNK

| Structure (SMILES) | Tumor progression by bioluminescent imaging (in vivo efficacy) vs untreated cells (Nalm6-luciferase cells [1]; CAR-iT i.v. days 3, 6, 9, imaging days 2-35, vs untreated cells (no dex or cytokines)) | In vivo efficacy, dexamethasone only vs dexamethasone+IL7 (Nalm6-luciferase cells [1]) | Tumor progression by bioluminescent imaging (in vivo efficacy) (Nalm6-luciferase cells [2]; CAR-iT i.v. days 3, 6, 9, imaging days 7, 14, 20, vs control cells without dexamethasone, FIGS. 8A-8B) | In vivo tumor control and clearance (Nalm6-luciferase cells [2]; vs primary CAR-T cells, FIGS. 9A-9B) | CAR-iT cell expansion (CAR-iT cells [3]) | Most differentially expressed genes, down-regulated (iNK cells [4]; [13]) | Most differentially expressed genes, up-regulated (iNK cells [4]; [13]) | Gene expression profile (RNAseq) (iNK cells [4]; iNK cells treated during expansion vs untreated control, FIG. 5) | Cell phenotype, cell surface markers by flow cytometry (CAR-iT cells [5]; absence of IL7 during dexamethasone treatment, FIGS. 7B-7C) | CAR-iT cell fold expansion (CAR-iT cells [5]; dexamethasone with (control) or without IL7, FIG. 7A) | Concentration dependence of the granzyme B effect ([6]; additional concentration levels of dexamethasone tested) | Granzyme B levels, geometric mean fluorescence intensity (GMFI) ([6]; primary NK cells, dexamethasone at 1 or 10 uM, FIG. 1B) | Area over the curve (AOC), discrimination between antigen positive and negative targets [7] | Genes highly expressed without treatment (CAR-iT cells [8]; CAR-iT cells) | Genes induced by treatment (CAR-iT cells [8]; CAR-iT cells) | Gene expression profile (RNAseq) (CAR-iT cells [8]; CD19-CAR iT cells, last 5 days of expansion, vs control) | Tumor progression by bioluminescent imaging (in vivo efficacy) (Nalm6-luciferase cells [9]) | Number of tumor nodules in the lungs [10] | Granzyme B protein levels, geometric mean fluorescence intensity (GMFI) (iNK cells [11]) | EC50 = E:T ratio needed to achieve 50% specific cytotoxicity; functional recovery [12] |
| --- | --- | --- | --- | --- | --- | --- | --- | --- | --- | --- | --- | --- | --- | --- | --- | --- | --- | --- | --- | --- |
| C[C@@H]1C[C@H]2[C@@H]3CCC4=CC(=O)C=C[C@]4(C)[C@@]3(F)[C@@H](O)C[C@]2(C)[C@@]1(O)C(=O)CO [dexamethasone] | improved efficacy over untreated cells | at least as well as CAR-iT cells treated with dexamethasone+IL7 | improved iT in vivo efficacy; also recorded: improves CAR-iT cell in vivo function | superior to primary CAR-T cells in in vivo tumor control and clearance; also recorded: control tumor growth | much lower CAR-iT cell expansion | JCHAIN, KLF3, KLRB1, IGFBP4 and NUCB2 | SPOCK2, PTGDS, IL7R, LCNL1, RASGRP2, SMAP2 | drives unique gene expression profiles | not affected by the absence of IL7; also recorded: does not affect the cell phenotype | no significant difference in CAR-iT cell fold expansion; also recorded: does not affect the cell expansion | not particularly concentration dependent | reduced granzyme B expression; also recorded: decreases granzyme B protein levels | better discrimination between antigen positive and negative targets | CXCR6 and CSF2RB are highly expressed in iT cells without dexamethasone treatment | IL6ST, IL-7R and IL2RA were highly induced | drives unique gene expression profiles | improves in vivo efficacy | improved tumor growth control | decreased in comparison to untreated control; also recorded: decreases granzyme B protein levels | – |
| CO[C@H]1C[C@@H]2CC[C@@H](C)[C@@](O)(O2)C(=O)C(=O)N2CCCC[C@H]2C(=O)O[C@H]([C@H](C)C[C@@H]2CC[C@@H](O)[C@H](OC)C2)CC(=O)[C@H](C)/C=C(\C)[C@@H](O)[C@@H](OC)C(=O)[C@H](C)C[C@H](C)/C=C/C=C/C=C/1C [rapamycin] | – | – | – | – | – | – | – | – | – | – | – | – | – | – | – | – | – | – | – | dexamethasone being superior to rapamycin treatment |
